Results published in patent publication US20110263478A1, “SUR1 INHIBITORS FOR THERAPY” (priority 2008, published 2011).
No constants are given. Whether binding was seen depends on the method and setting. In cells and extracts the contact can be indirect. Some entries that bind do so weakly or less than the wild type.

Chains of the proteins cited; added tags and fusions are not shown.
UniProt Q09429: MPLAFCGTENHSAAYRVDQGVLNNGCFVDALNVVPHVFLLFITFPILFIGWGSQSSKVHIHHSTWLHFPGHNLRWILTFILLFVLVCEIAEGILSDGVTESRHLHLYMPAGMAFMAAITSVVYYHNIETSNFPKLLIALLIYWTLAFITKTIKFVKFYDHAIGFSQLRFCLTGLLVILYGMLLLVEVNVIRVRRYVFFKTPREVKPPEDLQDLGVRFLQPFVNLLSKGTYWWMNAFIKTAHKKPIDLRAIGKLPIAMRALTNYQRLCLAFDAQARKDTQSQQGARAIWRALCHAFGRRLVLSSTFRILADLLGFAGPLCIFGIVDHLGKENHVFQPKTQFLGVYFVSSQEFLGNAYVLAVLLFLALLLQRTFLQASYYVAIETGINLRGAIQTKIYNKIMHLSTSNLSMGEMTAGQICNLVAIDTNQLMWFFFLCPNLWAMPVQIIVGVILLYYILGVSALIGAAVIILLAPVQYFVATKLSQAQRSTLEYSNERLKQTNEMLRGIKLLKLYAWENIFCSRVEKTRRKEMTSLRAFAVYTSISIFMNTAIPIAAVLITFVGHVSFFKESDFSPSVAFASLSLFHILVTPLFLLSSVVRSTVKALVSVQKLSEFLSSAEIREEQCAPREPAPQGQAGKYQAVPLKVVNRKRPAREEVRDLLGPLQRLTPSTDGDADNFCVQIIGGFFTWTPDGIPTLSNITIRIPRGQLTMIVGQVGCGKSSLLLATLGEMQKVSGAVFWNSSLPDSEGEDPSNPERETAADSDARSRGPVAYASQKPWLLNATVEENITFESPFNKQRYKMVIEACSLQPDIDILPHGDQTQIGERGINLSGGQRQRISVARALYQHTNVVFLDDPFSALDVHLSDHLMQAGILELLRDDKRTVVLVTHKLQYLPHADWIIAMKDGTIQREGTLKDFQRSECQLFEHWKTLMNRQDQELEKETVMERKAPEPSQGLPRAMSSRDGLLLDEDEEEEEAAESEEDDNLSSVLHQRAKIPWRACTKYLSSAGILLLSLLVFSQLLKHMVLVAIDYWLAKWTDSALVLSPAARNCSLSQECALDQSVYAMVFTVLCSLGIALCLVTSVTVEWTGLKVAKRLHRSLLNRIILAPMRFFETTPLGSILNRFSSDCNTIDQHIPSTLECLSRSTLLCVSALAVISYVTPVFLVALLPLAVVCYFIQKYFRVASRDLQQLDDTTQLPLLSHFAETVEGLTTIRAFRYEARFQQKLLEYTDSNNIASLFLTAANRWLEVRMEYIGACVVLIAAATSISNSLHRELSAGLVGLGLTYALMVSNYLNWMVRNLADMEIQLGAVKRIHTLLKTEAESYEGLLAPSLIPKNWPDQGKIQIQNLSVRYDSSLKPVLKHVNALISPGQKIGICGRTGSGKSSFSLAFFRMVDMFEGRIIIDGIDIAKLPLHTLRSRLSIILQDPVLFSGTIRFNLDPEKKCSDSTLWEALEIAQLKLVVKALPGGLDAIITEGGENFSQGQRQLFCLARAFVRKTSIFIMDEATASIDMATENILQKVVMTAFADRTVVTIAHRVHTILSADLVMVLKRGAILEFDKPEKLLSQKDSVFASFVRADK
UniProt Q9ESQ5: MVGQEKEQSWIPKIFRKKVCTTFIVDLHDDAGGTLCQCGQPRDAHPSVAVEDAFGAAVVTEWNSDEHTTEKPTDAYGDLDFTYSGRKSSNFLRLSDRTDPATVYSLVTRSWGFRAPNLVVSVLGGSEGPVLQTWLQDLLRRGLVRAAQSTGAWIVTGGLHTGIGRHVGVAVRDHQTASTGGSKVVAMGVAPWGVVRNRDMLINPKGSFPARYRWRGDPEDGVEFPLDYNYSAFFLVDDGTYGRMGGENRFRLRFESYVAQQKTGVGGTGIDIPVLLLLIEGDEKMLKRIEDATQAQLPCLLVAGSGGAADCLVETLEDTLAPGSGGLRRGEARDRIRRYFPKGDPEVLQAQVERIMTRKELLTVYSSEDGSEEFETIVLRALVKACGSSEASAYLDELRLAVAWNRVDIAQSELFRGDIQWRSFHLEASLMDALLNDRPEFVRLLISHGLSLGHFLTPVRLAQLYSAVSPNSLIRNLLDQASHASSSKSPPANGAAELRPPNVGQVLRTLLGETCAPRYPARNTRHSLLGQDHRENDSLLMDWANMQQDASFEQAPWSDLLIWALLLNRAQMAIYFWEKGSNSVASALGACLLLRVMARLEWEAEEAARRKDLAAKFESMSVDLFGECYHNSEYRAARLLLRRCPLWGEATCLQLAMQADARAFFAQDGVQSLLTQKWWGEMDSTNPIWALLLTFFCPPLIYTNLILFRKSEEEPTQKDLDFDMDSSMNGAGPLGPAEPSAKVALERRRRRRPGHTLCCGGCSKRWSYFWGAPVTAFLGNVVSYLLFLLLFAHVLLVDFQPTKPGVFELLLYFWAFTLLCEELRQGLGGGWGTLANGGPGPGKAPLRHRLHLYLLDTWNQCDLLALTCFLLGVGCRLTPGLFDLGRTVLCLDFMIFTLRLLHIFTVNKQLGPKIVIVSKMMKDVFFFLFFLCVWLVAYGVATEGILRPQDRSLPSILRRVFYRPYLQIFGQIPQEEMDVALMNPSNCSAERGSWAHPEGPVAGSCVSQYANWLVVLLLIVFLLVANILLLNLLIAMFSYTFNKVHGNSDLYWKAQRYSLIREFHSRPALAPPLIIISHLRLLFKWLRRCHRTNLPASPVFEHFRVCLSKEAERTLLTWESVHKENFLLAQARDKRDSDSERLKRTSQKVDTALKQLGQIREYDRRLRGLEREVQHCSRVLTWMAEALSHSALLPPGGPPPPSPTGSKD

Key:
[1] = biological target: sulfonylurea receptor 1 (SUR1), rat, endogenous in CNS tissue lysate (rat) (UniProt Q09429); assay: co-immunoprecipitation with SUR1 antibody, Western blot for TRPM4, figure legend
[2] = biological target: sulfonylurea receptor 1 (SUR1), rat, endogenous in CNS tissue lysate (rat) (UniProt Q09429); assay: co-immunoprecipitation from injured tissue lysate with anti-SUR1 antibody, Western blot for TRPM4

binding [1]: binds
Substance: transient receptor potential melastatin 4 (TRPM4), rat, endogenous in injured tissue lysate (from UniProt Q9ESQ5 1-1208)
binding [2]: binds
